In all, about 53,000 sequences went through this assay and about 3,700 (7%) were called active.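 Rule for the calls: active = gene knockdowns whose robust z-score for IL-1 alpha signal is at least 2 or at most -2, so actives lie on both sides; inactive = the rest.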 Some of the results follow.
Experiment: Components of the Cytosolic LPS Sensing Pathway: Gene Identification via Genome-wide siRNA Screen;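 note: robust z of the log signal after scaling to non-targeting control siRNA wells of the plate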
Settings: RAW264.7 macrophages, IL-1a HTRF, actives lie on both sides, screened at 100 nM (by protocol), cells primed 5 h with Pam3CSK4 first
In short: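 Read-out: IL-1a HTRF on supernatant, divided by plate negative-control median ×100, log-transformed and converted to robust z-score. Cells were RAW264.7 given 100 nM siRNA, Pam3CSK4-primed 5 hours, then LipidA-transfected 24 hour.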
In the case of CCCAUCUUUGCAACAUAUCTT against Scgb2b20, the z-score is reported as inactive: -1.43.
With CGUGUUUCAGGUUUCUAUUTT against Sgpp2 the z-score was inactive: 0.841.
For GCCGAAUAUUUCUACCUAATT against Fosl2, the z-score was inactive: 0.989.
In the case of GCAAUACGUGGAAGAUGGATT against Prex1, the z-score is reported as inactive: -1.98.
In the case of GCAGGCUCUGCAUGAAGCATT against Alpl, the z-score is reported as inactive: -0.213.
For GGAGAAAGAGAUUCCUAUUTT against Triap1, the z-score was inactive: -0.818.
In the case of GGCUUUGUAUCAUCAUCAUTT against Vsir, the z-score is reported as inactive: -0.906.
In the case of GGUAUCACACUGGAAAGAATT against Zfp78, the z-score is reported as inactive: 0.0156.
For GGUAGAUUUUGAUGAAUUCTT against Caln1, the z-score was inactive: 0.404.
With GGUGACAAAACCAUUUCCUTT against Olfr810 the z-score was inactive: -0.547.
For CCUAUAUUCGGAGUGCAGUTT against Cops2, the z-score was inactive: 0.541.
With GGCCAAGAACCGCUUUCACTT against Hesx1 the z-score was inactive: -1.46.
With CAGGAAAUUAGCGAUGUGGTT against Abl2 the z-score was inactive: 0.206.
For GGUGUUGGAUUCCAAUCCCTT against Uba5, the z-score was inactive: -0.462.
In the case of GGAAGAGGGUUAAGAAAACTT against Nnat, the z-score is reported as inactive: 0.618.
For CCUUACGAAAUAAGGUAUUTT against Loxl3, the z-score was inactive: -0.961.
With UGUAACCAUGGUUACCGUGTT against Olfr1513 the z-score was inactive: 0.311.
With GGAAUCUGAAGGAGAUGCATT against Tmprss15 the z-score was inactive: 0.308.
For CGUAGAAGAAUCUGCAUCATT against Ccl28, the z-score was inactive: -0.715.
With GGCUGUGGAUAAUAAACAUTT against Vmn1r84 the z-score was inactive: -1.1.
In the case of GCGUGCAUAUCUUAGAAAUTT against Zfp51, the z-score is reported as inactive: -0.401.
In the case of GGAAAAAAGUUCAUCGUGGTT against Kcnu1, the z-score is reported as inactive: 0.205.
With GGAGAUUUGCUCCUUAGUGTT against Pcdhb19 the z-score was inactive: -0.491.
With GCCUGUAAGACUGUACUGGTT against Slurp1 the z-score was inactive: -0.37.
In the case of GCAUCGAUAGUAUACUGUGTT against Srr, the z-score is reported as inactive: -0.126.
In the case of GGUUCUACGGUCCAAAGUUTT against Fetub, the z-score is reported as inactive: -0.421.
With GGUUACCAAGCCUAAGACCTT against H1f5 the z-score was inactive: -0.48.
With CCUGGACAAGCAAGAUCUCTT against Vmn2r42 the z-score was inactive: 1.36.
In the case of GGCUCUGAUCUUGAACUAATT against Tmem35a, the z-score is reported as inactive: -0.017.
In the case of GUUCAUCAUUCGAAUCUGGTT against Kcnq5, the z-score is reported as inactive: -1.19.
In the case of GCCCUGUAUUUUGAAUUACTT against Bmpr1b, the z-score is reported as inactive: 0.0161.
In the case of GAUCUUAGCUGUGUGUGUGTT against Pf4, the z-score is reported as active: -2.57.
For CGUUUCUGCAGCAAAAUUUTT against Spag16, the z-score was inactive: -0.474.
With GCACAAACUACUGAACUUGTT against Tfap2e the z-score was inactive: 1.36.
In the case of GGCAUAAGAGAAAAGAUUUTT against Avpr1a, the z-score is reported as inactive: 0.895.
For GGGUUAUGAAGAGAAACUUTT against Gatad2b, the z-score was inactive: 0.236.
In the case of CCUGUAUGGUCAAAGGAGUTT against Il6ra, the z-score is reported as inactive: -0.237.
In the case of GGCUCUUCUACUCCUUUUUTT against Lsm2, the z-score is reported as inactive: -0.555.
In the case of GGACAACACCAGUGACAUCTT against Gzmf, the z-score is reported as inactive: 0.656.
For GGCGGAGGAAGAGUUCAACTT against Atp6v1e2, the z-score was inactive: -0.393.
For CCGUGAUCCCAUCAUGCAUTT against Ereg, the z-score was inactive: -0.239.
With GGAUAAAUGGGUAAUUCUGTT against Vmn2r1 the z-score was inactive: 0.269.
With GGCCUCUGAGGACAAGUUUTT against Als2cl the z-score was inactive: 0.0383.
For GGAAUCUGCCAUUUCAGAUTT against Zbtb5, the z-score was inactive: 1.35.
With CGUACAAUAGCUAGGCAUUTT against Ankrd22 the z-score was inactive: 1.67.
With GGUCAACAAGCAUGCAUUUTT against Wars the z-score was inactive: -1.65.
With GGAAGUUUGUAUCAAUCCATT against Smad5 the z-score was inactive: 0.337.
With GGAGUAUGUGGAAUGUCUATT against Creb3l1 the z-score was inactive: -0.903.
In the case of GGUCAUCAAAUACAAAAUGTT against Prl2b1, the z-score is reported as inactive: -0.326.
For GGAAAUGACUACUAUGACCTT against Slc12a4, the z-score was inactive: -0.712.
For GGUUCACCACAGGUCUUGUTT against Hdac4, the z-score was inactive: -0.0347.
For CCUAACGUGCUUCCCACCATT against Arsa, the z-score was inactive: -1.47.
With GGUGUCGAGUAAGAAAGCUTT against Cep104 the z-score was inactive: -0.339.
In the case of GGAAAUGUGGAAUACACCGTT against Prl7a2, the z-score is reported as inactive: 1.39.
With CCUUCAAUAUCAGUUUGGGTT against Olfr10 the z-score was inactive: -0.241.
With UAUUUUGUUGCUCUCUCAGTT against Olfr97 the z-score was inactive: -1.13.
In the case of CCUGACAAAAGAACCUUAUTT against Arhgap32, the z-score is reported as inactive: 0.812.
In the case of GCCUCCACAUAAGAAGCUGTT against Fndc3b, the z-score is reported as inactive: -0.285.
With GGAUAAGACUCGAUGGAUGTT against Ambra1 the z-score was inactive: 0.476.
In the case of UGCCUAUUUGGGUAUUAUGTT against H2-M10.3, the z-score is reported as inactive: -0.536.
In the case of “GCUGAAGACGUGAUUUCCUTT against 5930403N24Rik”, the z-score is reported as inactive: 0.543.
With GGAAGAAAACAGCGAUUUGTT against Ppp1r15a the z-score was inactive: -0.447.
For GGAAGAGGAGGAGUACAAGTT against Fnbp1, the z-score was inactive: -0.0804.
For “CCAUACAAGUAUCCGAACUTT against 1700102P08Rik”, the z-score was inactive: 1.03.
With GUCUACCUUGUUUAUGACCTT against Micos13 the z-score was inactive: -1.7.
In the case of CCUCAAUAGCUCUACUGAATT against Slc17a3, the z-score is reported as inactive: 0.393.
With GAAAUUUCCUAGAUGACUCTT against Vmn1r199 the z-score was inactive: -0.447.
In the case of GGAGGUUAAUUCAGAGCUGTT against Nrf1, the z-score is reported as inactive: -0.442.
With GUAUGACCAGAAGAAAAAGTT against Lrrc72 the z-score was active: -2.19.
In the case of GCUGCACGAUGCAUGGUUUTT against Asic3, the z-score is reported as inactive: 1.43.
With CCCAUAACCAGAAUUAAAGTT against Wdr64 the z-score was inactive: 0.454.
For CGUGGAACUCUCAACCAAGTT against Rbm14, the z-score was inactive: 0.151.
In the case of GGGAUAAGAUUUUCUUGAUTT against Dock2, the z-score is reported as inactive: 0.332.
With GGAGGAAAAGGCUUUUCGATT against Ccdc70 the z-score was inactive: 1.04.
With GGUGUGACCUCAUCUUUUUTT against Kmt5c the z-score was inactive: -1.35.
For GGCUUGAUGAAUAUUCCAUTT against Bpifa5, the z-score was inactive: 1.11.
In the case of GAUCUAGGACAGCUUAGAUTT against Avpr1b, the z-score is reported as inactive: -0.955.
With CCAUCAAUGUAAUCUUCCATT against Zfp386 the z-score was inactive: -0.362.
With GGAAAAUCAAGAUGAGAUATT against Stag2 the z-score was inactive: -1.21.
With CGAUAAGAACACCUAUAUUTT against Sf3b1 the z-score was active: -3.26.
In the case of GGAAAGAGGAAAACUCUCCTT against Pole4, the z-score is reported as inactive: 1.05.
For GGCCUGAAAUCAAACGGGUTT against Smarcd1, the z-score was inactive: 1.04.
With GGCCAUUUCAAGACUCUCGTT against Cd109 the z-score was inactive: 0.347.
With GAAUAUGUGGCUCUGGGUCTT against G6pc3 the z-score was inactive: -0.414.
For GGCUUAUGUGAUUUUGAUUTT against Gpr63, the z-score was inactive: -0.628.
In the case of GGUCUUUUCACAUACAUAUTT against Fstl1, the z-score is reported as inactive: 0.199.
For GGUGCUCAGGAGGGAAUCUTT against Fdxacb1, the z-score was inactive: 0.324.
In the case of GCCUGGAUAGGCUUAAAGATT against Dpep2, the z-score is reported as inactive: -0.267.
With GCUUUCGGACUACAGAGGGTT against Prdx2 the z-score was inactive: -0.459.
With GGCAAAAUAAAGCUUAAGGTT against Robo3 the z-score was inactive: -0.517.
With GAGAAUCCAGAACUCCAAUTT against Olfr952 the z-score was inactive: 0.566.
With GGAGAAGAUGUGGAGACAUTT against Edf1 the z-score was inactive: -1.3.
In the case of GGAUCCAGUUUUGUUUUUGTT against Slc28a2, the z-score is reported as inactive: 0.325.
With GGCCACCAUCCAUGAGAACTT against Kcne2 the z-score was inactive: 0.515.
In the case of GCUAGUUCUGAGAGACAGATT against Mup5, the z-score is reported as inactive: -0.261.
For GGUCCAAUUAAGGUUUUGUTT against Pias1, the z-score was inactive: 0.817.
In the case of GCUCUCCUCAAGUCAAGUGTT against R3hcc1l, the z-score is reported as inactive: -0.166.
With GGAAAUAGAGAAGAAAUUGTT against Nsmf the z-score was inactive: 0.225.
With GGCUAUCUUGCUGCUGGUUTT against Vmn1r17 the z-score was inactive: 1.08.
In the case of GGAGAUGGAGGAGAAAGCATT against Art5, the z-score is reported as inactive: -1.49.
For CGAGCAGUGAAGACCAUCUTT against Klk14, the z-score was inactive: -0.151.
In the case of CCUCCUGGAAGGGAUCAUGTT against Tmem119, the z-score is reported as inactive: -0.384.
For GGCUGUUCGGGUGACUAUUTT against Il17re, the z-score was active: -2.83.
With GAGCUAUACAAGGCCUACCTT against LOC547349 the z-score was inactive: 0.586.
With GGCCCAGAAGUUAUUCCUGTT against Zfp566 the z-score was inactive: -0.57.
For CCUACUAUGGCUCAUUUUATT against Rybp, the z-score was inactive: 0.216.
